Reference: patent publication US20240043528A1, “NANOBODY-OGA FUSIONS AND USES THEREOF” (President and Fellows of Harvard College, priority 2020, published 2024)
Results are given in words; binding and its absence hold for the method and conditions named. In cells and extracts the contact can be indirect. Some binding calls cover weakened binding; strength is not graded here. Tags and fused reporters may be left off the sequences shown.

Amino acid sequences for entries named in this document (tags omitted). A change or cut given only in a name is not applied to a line headed by its entry.
UniProt O60502: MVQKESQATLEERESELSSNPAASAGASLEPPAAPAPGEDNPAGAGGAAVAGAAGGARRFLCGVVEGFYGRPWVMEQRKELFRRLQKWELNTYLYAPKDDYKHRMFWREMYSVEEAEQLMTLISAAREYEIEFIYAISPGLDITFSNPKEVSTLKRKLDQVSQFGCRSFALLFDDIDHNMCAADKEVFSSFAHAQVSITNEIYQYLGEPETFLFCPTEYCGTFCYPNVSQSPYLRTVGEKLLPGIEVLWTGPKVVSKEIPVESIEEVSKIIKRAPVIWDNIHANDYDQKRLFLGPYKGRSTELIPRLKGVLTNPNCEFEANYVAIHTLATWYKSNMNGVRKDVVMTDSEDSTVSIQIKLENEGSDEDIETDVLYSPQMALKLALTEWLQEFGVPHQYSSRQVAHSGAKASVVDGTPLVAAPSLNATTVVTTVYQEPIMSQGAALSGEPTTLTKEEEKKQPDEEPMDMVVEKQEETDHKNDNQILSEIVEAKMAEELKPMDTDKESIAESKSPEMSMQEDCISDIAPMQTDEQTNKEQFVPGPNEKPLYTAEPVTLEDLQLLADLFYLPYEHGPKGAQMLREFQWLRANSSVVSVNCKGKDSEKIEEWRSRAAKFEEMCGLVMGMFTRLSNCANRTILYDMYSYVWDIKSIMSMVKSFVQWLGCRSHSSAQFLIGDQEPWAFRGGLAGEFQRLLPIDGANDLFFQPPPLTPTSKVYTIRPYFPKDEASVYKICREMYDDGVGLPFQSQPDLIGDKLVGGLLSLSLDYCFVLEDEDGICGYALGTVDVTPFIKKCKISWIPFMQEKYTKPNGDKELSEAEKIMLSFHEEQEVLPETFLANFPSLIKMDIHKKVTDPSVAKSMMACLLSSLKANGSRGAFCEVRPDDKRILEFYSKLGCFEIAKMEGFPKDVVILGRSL

B1: myc-OGA(1-400) (enzyme)
chain: MEQKLISEEDLAIAMVQKESQATLEERESELSSNPAASAGASLEPPAAPAPGEDNPAGAGGAAVAGAAGGARRFLCGVVEGFYGRPWVMEQRKELFRRLQKWELNTYLYAPKDDYKHRMFWREMYSVEEAEQLMTLISAAREYEIEFIYAISPGLDITFSNPKEVSTLKRKLDQVSQFGCRSFALLFDDIDHNMCAADKEVFSSFAHAQVSITNEIYQYLGEPETFLFCPTEYCGTFCYPNVSQSPYLRTVGEKLLPGIEVLWTGPKVVSKEIPVESIEEVSKIIKRAPVIWDNIHANDYDQKRLFLGPYKGRSTELIPRLKGVLTNPNCEFEANYVAIHTLATWYKSNMNGVRKDVVMTDSEDSTVSIQIKLENEGSDEDIETDVLYSPQMALKLALTEWLQEFGVPHQYSSR
B2: myc-OGA (full length human OGA with a myc tag) (enzyme)
chain: MASMQKLISEEDLLMAMEARIRSTVQKESQATLEERESELSSNPAASAGASLEPPAAPAPGEDNPAGAGGAAVAGAAGGARRFLCGVVEGFYGRPWVMEQRKELFRRLQKWELNTYLYAPKDDYKHRMFWREMYSVEEAEQLMTLISAAREYEIEFIYAISPGLDITFSNPKEVSTLKRKLDQVSQFGCRSFALLFDDIDHNMCAADKEVFSSFAHAQVSITNEIYQYLGEPETFLFCPTEYCGTFCYPNVSQSPYLRTVGEKLLPGIEVLWTGPKVVSKEIPVESIEEVSKIIKRAPVIWDNIHANDYDQKRLFLGPYKGRSTELIPRLKGVLTNPNCEFEANYVAIHTLATWYKSNMNGVRKDVVMTDSEDSTVSIQIKLENEGSDEDIETDVLYSPQMALKLALTEWLQEFGVPHQYSSRQVAHSGAKASVVDGTPLVAAPSLNATTVVTTVYQEPIMSQGAALSGEPTTLTKEEEKKQPDEEPMDMVVEKQEETDHKNDNQILSEIVEAKMAEELKPMDTDKESIAESKSPEMSMQEDCISDIAPMQTDEQTNKEQFVPGPNEKPLYTAEPVTLEDLQLLADLFYLPYEHGPKGAQMLREFQWLRANSSVVSVNCKGKDSEKIEEWRSRAAKFEEMCGLVMGMFTRLSNCANRTILYDMYSYVWDIKSIMSMVKSFVQWLGCRSHSSAQFLIGDQEPWAFRGGLAGEFQRLLPIDGANDLFFQPPPLTPTSKVYTIRPYFPKDEASVYKICREMYDDGVGLPFQSQPDLIGDKLVGGLLSLSLDYCFVLEDEDGICGYALGTVDVTPFIKKCKISWIPFMQEKYTKPNGDKELSEAEKIMLSFHEEQEVLPETFLANFPSLIKMDIHKKVTDPSVAKSMMACLLSSLKANGSRGAFCEVRPDDKRILEFYSKLGCFEIAKMEGFPKDVVILGRSL

Columns and labels:
HA-OGA(544-706) (human) = molecular target: T1, HA-OGA(544-706) (human) (UniProt O60502); experiment: co-immunoprecipitation from HEK 293T lysates, immunoblot
T1 sequence: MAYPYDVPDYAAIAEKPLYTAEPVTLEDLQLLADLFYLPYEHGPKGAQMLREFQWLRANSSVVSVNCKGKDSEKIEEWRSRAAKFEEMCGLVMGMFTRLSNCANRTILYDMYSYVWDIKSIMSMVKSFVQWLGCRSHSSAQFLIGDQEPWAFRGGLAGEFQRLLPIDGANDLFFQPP

[1] = molecular target: HA-nGFP-(EAAAK)4-OGA(544-706) (human); experiment: reciprocal co-immunoprecipitation from HEK 293T lysates, immunoblot
[2] = molecular target: T2, OGT with C-terminal His tag (human) (UniProt O15294); experiment: co-immunoprecipitation with beads against the His tag of OGT from HEK 293T lysates, immunoblot
T2 sequence (looked up): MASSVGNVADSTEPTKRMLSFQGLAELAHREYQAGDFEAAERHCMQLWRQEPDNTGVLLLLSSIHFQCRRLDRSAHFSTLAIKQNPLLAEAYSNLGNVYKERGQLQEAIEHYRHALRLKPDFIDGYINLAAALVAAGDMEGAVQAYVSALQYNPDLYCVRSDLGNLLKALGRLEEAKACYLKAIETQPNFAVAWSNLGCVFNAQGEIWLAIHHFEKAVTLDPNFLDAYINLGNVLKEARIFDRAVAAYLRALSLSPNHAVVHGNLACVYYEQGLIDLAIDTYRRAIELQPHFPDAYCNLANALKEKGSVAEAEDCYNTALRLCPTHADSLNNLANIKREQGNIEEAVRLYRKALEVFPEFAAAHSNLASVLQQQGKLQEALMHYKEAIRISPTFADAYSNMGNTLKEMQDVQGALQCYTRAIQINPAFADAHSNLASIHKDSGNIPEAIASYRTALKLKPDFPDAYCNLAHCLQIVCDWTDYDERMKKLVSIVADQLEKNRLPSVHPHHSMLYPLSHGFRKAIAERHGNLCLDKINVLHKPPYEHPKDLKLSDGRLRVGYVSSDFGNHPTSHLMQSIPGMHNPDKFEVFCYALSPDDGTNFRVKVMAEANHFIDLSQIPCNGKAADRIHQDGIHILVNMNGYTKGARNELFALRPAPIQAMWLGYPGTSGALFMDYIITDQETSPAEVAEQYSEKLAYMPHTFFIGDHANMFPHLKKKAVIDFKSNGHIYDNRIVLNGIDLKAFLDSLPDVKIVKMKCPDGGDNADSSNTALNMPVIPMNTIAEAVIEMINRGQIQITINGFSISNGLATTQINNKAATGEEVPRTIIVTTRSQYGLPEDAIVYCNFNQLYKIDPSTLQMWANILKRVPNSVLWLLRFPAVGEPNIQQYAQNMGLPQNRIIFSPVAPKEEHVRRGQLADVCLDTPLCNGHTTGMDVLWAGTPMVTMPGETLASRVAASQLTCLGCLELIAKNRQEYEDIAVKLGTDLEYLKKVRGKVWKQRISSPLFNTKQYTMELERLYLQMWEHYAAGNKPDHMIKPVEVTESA

| binding (HA-OGA(544-706) (human)) | binding [1] | binding [2] | Binder |
| --- | --- | --- | --- |
| binds | binds |  | B1 |
|  |  | binds | B2 |
